Results published in US20030162834A1, “Natural physiologically active material effective on fish diseases and fish food containing the material” (priority 1998, published 2003).
Some entries share one result that the patent states for a list of compounds. At least one compound was matched to its structure with a doubt left.

System: Cryptocaryon irritans
Assay: Trial 1: in vitro immersion of theronts in fatty acid seawater solutions
Type: cell-based
Conditions: 0.5 mM in seawater, 20 degrees centigrade
Description: For Cryptocaryon irritans, fatty acids having carbon number C2, C4 and C6-C10 were each dissolved in seawater at 0.5 mM concentration, and theronts of Cryptocaryon irritans were immersed in the seawater solutions. After 1 hour from the start of immersion, the efficacy of the fatty acids was investigated by counting the number of dead theronts. More than 200 individuals of parasites were transferred to each group.
For any of the groups, the trial was made under condition of 20 degrees centigrade.

SMILES | emergence of dead theronts | emergence of dead theronts (listed as C8)
CCCCCCC(=O)O [C7] | dead individual emerged | –
CCCCCCCCC(=O)O [C9, pelargonic acid] | dead individual emerged | –
CCCCCCCCCC(=O)O [decanoic acid] | dead individual emerged | –
CCCCCCCC(=O)O [octanoic acid] | – | dead individual emerged
